In patent US20070003484 (published 2007) one finds conjugation yield data, which are given here for three substances.

A short description of the series: peptide synthesis. The settings on record: conjugation step.

ACTH (1-17) yielded a conjugation yield of 74%. Substance H-Arg-Gly-Asp-Cys-OH gave a conjugation yield of 92%. Substance H-Asp-Leu-Trp-Gln-Lys-OH returned a conjugation yield of 88%.
